According to publication PMC12460815:
Results are given in words; binding and its absence hold for the method and conditions named. In cells and extracts the contact can be indirect. A result given as binding can be weak or reduced; the word gives no strength.

Sequences of proteins named here, by UniProt entry; tags and fusion partners are left off. A change or cut given only in a name is not applied to a line headed by its entry.
UniProt P09038: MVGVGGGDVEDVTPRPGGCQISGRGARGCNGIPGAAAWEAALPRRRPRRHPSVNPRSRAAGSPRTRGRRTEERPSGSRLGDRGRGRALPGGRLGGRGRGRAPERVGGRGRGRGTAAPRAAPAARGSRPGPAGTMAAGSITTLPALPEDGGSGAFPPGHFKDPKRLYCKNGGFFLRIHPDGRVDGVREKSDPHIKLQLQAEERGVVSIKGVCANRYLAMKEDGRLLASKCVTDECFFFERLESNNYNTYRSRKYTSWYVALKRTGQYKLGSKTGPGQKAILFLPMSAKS
UniProt Q14974: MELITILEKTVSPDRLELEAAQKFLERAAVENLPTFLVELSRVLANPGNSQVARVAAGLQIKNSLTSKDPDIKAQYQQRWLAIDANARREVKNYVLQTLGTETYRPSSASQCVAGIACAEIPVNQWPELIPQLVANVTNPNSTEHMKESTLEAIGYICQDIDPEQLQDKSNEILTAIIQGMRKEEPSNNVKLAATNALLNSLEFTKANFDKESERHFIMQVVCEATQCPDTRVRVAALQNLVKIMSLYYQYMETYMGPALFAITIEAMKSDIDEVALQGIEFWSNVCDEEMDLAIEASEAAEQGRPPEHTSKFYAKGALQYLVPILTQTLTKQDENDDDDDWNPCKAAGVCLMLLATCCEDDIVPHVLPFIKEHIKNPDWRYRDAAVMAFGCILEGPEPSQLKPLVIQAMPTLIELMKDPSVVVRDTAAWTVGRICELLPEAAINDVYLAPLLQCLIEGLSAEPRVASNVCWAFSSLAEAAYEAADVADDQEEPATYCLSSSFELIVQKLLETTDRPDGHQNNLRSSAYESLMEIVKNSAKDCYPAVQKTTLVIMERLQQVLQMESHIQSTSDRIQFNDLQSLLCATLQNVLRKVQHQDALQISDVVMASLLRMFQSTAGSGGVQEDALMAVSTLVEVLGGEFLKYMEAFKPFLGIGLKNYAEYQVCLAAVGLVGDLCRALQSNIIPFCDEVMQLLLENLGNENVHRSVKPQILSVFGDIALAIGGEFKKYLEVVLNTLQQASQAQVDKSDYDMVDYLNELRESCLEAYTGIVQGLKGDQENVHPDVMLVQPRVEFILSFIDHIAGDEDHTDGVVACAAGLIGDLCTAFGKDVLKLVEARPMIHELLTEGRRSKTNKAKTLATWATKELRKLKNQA

Target: basic fibroblast growth factor (FGF2) (human (endogenous in BMSCs)) (UniProt P09038)
Assay: co-IP; anti-FGF2 antibody and Protein A/G PLUS-Agarose on RIPA lysates of human BMSCs; immunoblot for KPNB1; normal and aged BMSCs, and BMSCs under osteogenic induction for 1, 4 and 7 days

binding: binds
Substance: karyopherin beta 1 (KPNB1) (from UniProt Q14974 1-876)
